Measurements taken from patent publication US9733244B2, “Means and methods for diagnosing and treating multiple sclerosis” (KLINIKUM RECHTS DER ISAR DER TECHNISCHEN UNIVERSITÄT MÜNCHEN, priority 2011, dated 2017).

System: anti-KIR4.1 antibody (serum IgG)
Assay: ELISA with plate bound KIR4.1 extracellular peptides, serum reactivity
Assay type: binding, human
Conditions: for share of MS patients with serum antibody reactivity to the peptide: sera of MS patients
[1] = positive = OD above median of HD plus 5 SD

GVVWYLVAVAHGDLLELDPPANHTPCVVQVHTLTGAFL (homo sapiens) [KIR4.183-120, peptide with the first (large) extracellular loop of KIR4.1, residues 83-120]
share of MS patients with serum antibody reactivity to the peptide [1]: 30.3% | share of OND patients with serum antibody reactivity to the peptide (sera of OND patients, positive = OD above median of HD plus 5 SD): 1.4%

TIGYGFRYISEECPLAIVLLI (homo sapiens) [KIR4.1128-148, peptide representing the smaller extracellular domain of KIR4.1, residues 128-148]
serum antibody reactivity to the peptide in HD or OND patients (sera of HD or OND patients): no | share of MS patients with serum antibody reactivity to the peptide [1]: 4%
